Literature values, collected in patent publication US20220168221A1 (priority 2020, published 2022).
For at least one compound, name, drawing or mass did not settle the structure.

Conditions: cited from earlier work

C[C@@H]([C@H](N)C(=O)N[C@H](C(=O)O)[C@H]1O[C@@H](n2ccc(=O)[nH]c2=O)[C@H](O)[C@@H]1O)[C@H](O)c1ccc(O)cn1 [nikZ, nikkomycin Z]
hydrophilicity: hydrophilic
